Values of other authors, collected in US20080275076A1, “Pharmaceutical Compositions Comprising Sirolimus and/or an Analogue Thereof” (priority 2005, published 2008).

Conditions: cited from earlier work

## CO[C@H]1C[C@@H]2CC[C@@H](C)[C@@](O)(O2)C(=O)C(=O)N2CCCC[C@H]2C(=O)O[C@H]([C@H](C)C[C@@H]2CC[C@@H](O)[C@H](OC)C2)CC(=O)[C@H](C)/C=C(\C)[C@@H](O)[C@@H](OC)C(=O)[C@H](C)C[C@H](C)/C=C/C=C/C=C/1C [Sirolimus]
Benzyl alcohol, chloroform, acetone and acetonitrile
  solubility in organic solvents: freely soluble
water
  solubility in water: insoluble
